Experimental data: PubChem BioAssay AID602196 (INSERM, 2012)
This is one part, drawn at random, of about 23,000 reagents tested. 455 of all reagents (2%) were called active. 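Active includes both protection and sensitisation; some change values fall well beyond the stated -50 to +50 range.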 Unmarked entries are inactive. Further read-outs or replicates are left out here. Reagent sequences are not shown. Not stated in the record: the amount of reagent.

Purpose: 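Knock-downs that protect lung cancer cells from cisplatin or sensitise them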
Cell system: human A549 lung cancer cells
Reagent: siRNA pair against human genes
Timing: 48 h transfection before cisplatin; time from cisplatin to read-out not stated
Challenge: cisplatin at a dose killing half of control-siRNA cells; exact dose and duration not given
Measurement: 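Shift in cisplatin death relative to control siRNA, from -50 (all cells die) to +50 (no cells die); siRNAs harmful on their own scored 0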
Scale: two-siRNA summed score (-2 to +2): higher = both siRNAs protect from cisplatin killing; -2 means both sensitise; mean protection from cisplatin (shift in death): higher = protection from cisplatin killing
Call rule: 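Each siRNA scores 0 if harmful alone by LDH or WST-1, otherwise +1 if it reduces and -1 if it increases cisplatin killing; a gene is active when both siRNAs agree (sum +2 or -2)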
Meaning of the calls: active = both siRNAs shift cisplatin killing the same way; inactive = no consistent shift, or siRNA harmful alone

DOK2 — two-siRNA summed score (-2 to +2) = 0; mean protection from cisplatin (shift in death) (%) = 7.1
GPSM1 — two-siRNA summed score (-2 to +2) = 0; mean protection from cisplatin (shift in death) (%) = -6.3
ZNF292 — two-siRNA summed score (-2 to +2) = 0; mean protection from cisplatin (shift in death) (%) = 18.8
LOC440734 — two-siRNA summed score (-2 to +2) = 0; mean protection from cisplatin (shift in death) (%) = 10.2
UBE2R2 — two-siRNA summed score (-2 to +2) = 1; mean protection from cisplatin (shift in death) (%) = 17.6
CLDN20 — two-siRNA summed score (-2 to +2) = 0; mean protection from cisplatin (shift in death) (%) = -0.1
APH1A — two-siRNA summed score (-2 to +2) = -1; mean protection from cisplatin (shift in death) (%) = -15.7
AP4E1 — two-siRNA summed score (-2 to +2) = 0; mean protection from cisplatin (shift in death) (%) = 3.1
MYLK — two-siRNA summed score (-2 to +2) = 0; mean protection from cisplatin (shift in death) (%) = 7.2
CHODL — two-siRNA summed score (-2 to +2) = 0; mean protection from cisplatin (shift in death) (%) = 7
LINGO1 — two-siRNA summed score (-2 to +2) = 0; mean protection from cisplatin (shift in death) (%) = -10.5
SMN1 — two-siRNA summed score (-2 to +2) = 0; mean protection from cisplatin (shift in death) (%) = 3.3
LOC391570 — two-siRNA summed score (-2 to +2) = 0; mean protection from cisplatin (shift in death) (%) = 5.5
LOC441748 — two-siRNA summed score (-2 to +2) = 0; mean protection from cisplatin (shift in death) (%) = 9.7
LOC152015 — two-siRNA summed score (-2 to +2) = 0; mean protection from cisplatin (shift in death) (%) = 8.4
KDM5A — two-siRNA summed score (-2 to +2) = -1; mean protection from cisplatin (shift in death) (%) = -12.1
LACTB2 — two-siRNA summed score (-2 to +2) = 0; mean protection from cisplatin (shift in death) (%) = 3.6
RRAD — two-siRNA summed score (-2 to +2) = -1; mean protection from cisplatin (shift in death) (%) = -22
ZNF281 — two-siRNA summed score (-2 to +2) = 0; mean protection from cisplatin (shift in death) (%) = 5.1
ZNRF3 — two-siRNA summed score (-2 to +2) = 0; mean protection from cisplatin (shift in death) (%) = -15.6
TMEM266 — two-siRNA summed score (-2 to +2) = 1; mean protection from cisplatin (shift in death) (%) = 18

Looked up above:
For “mean protection from cisplatin (shift in death) (%)”, GPSM1 has -6.3
LINGO1, two-siRNA summed score (-2 to +2) → 0
